The text below walks through data of article PMC6237183 (Nature structural & molecular biology, 2018).

Sequences of proteins named here, by UniProt entry; tags and fusion partners are left off.
UniProt P41595, whole entry L362F: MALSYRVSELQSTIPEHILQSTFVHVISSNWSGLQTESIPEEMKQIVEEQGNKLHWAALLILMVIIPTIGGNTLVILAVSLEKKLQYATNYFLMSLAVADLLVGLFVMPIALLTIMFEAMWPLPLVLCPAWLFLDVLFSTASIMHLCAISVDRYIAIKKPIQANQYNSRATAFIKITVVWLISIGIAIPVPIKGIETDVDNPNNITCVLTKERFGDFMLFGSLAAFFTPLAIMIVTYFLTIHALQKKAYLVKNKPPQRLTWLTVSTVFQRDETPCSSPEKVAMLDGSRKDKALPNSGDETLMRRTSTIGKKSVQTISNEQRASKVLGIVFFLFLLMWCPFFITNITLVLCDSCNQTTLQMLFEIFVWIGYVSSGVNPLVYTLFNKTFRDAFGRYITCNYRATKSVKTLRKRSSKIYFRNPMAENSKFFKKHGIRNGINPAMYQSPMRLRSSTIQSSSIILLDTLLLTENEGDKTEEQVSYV
UniProt P41595, whole entry L362N: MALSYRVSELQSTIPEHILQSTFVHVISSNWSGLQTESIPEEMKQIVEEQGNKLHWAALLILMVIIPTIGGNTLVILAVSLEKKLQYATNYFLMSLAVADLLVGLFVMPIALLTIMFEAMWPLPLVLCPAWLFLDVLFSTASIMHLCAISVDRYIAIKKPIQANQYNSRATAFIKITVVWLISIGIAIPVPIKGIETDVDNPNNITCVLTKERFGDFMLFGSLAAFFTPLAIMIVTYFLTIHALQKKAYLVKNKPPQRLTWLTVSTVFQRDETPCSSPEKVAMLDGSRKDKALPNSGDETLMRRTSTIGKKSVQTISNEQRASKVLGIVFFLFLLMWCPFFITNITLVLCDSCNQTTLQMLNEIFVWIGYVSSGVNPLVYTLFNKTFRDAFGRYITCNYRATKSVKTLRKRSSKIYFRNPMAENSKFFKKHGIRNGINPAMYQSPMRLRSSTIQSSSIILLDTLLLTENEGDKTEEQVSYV
UniProt P41595, whole entry L362Y: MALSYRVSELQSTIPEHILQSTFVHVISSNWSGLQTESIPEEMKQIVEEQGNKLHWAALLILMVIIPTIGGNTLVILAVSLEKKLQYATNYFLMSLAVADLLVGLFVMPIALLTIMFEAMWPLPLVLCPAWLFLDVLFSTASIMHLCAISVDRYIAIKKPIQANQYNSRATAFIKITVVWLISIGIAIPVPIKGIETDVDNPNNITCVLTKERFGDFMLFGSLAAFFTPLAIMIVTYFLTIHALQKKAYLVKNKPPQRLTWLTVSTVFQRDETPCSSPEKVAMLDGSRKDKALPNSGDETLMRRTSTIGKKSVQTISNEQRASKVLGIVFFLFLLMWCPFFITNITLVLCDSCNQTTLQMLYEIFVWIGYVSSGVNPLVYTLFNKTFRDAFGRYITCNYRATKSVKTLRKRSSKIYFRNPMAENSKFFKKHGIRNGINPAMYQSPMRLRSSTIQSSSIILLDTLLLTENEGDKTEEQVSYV
UniProt P41595, whole entry: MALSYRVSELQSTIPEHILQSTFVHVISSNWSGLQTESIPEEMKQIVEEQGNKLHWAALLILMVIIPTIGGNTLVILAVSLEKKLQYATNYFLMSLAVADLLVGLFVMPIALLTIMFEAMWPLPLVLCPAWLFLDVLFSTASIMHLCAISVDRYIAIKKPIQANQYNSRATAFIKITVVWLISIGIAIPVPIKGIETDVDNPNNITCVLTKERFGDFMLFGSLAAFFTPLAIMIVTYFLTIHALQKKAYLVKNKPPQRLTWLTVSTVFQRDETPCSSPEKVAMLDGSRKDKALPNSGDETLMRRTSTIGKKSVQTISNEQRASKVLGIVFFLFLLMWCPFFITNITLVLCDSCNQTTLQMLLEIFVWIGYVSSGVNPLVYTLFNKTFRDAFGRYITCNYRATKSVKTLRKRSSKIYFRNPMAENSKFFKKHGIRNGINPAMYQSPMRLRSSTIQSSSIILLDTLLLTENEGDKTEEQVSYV

Assay [1] addresses T1, 5-HT2BR L362F^7.35 (Homo sapiens, UniProt P41595, L362F). Particulars: L362F^7.35 mutant.
The target in the next assay is 5-HT2BR L362N^7.35 (Homo sapiens, UniProt P41595, L362N). Nature of the assay: cell-based. Particulars: read-out: Gq calcium flux Emax.
For assay [2], the target named is T1, 5-HT2BR L362F^7.35. Nature of the assay: Gq-mediated calcium flux FLIPR assay. Particulars: read-out: Gq calcium flux Emax. (In general: Calcium assays in cells follow changes in intracellular calcium, usually with a dye or a luminescent sensor.)
Another assay deals with 5-HT2BR L362Y^7.35 (Homo sapiens, UniProt P41595, L362Y). Kind of assay: cell-based. Particulars: read-out: Gq calcium flux Emax.
Another assay deals with 5-HT2BR wild-type (Homo sapiens, UniProt P41595). Nature of the assay: Gq-mediated calcium flux FLIPR assay.

With `CCN(CC)C(=O)N[C@H]1C=C2c3cccc4[nH]cc(c34)C[C@H]2N(C)C1` [lisuride], the “β-arrestin recruitment agonism” value on 5-HT2BR L362F^7.35 [1] is “did not restore”. Also, the values for the maximum response (Emax) at 5-HT2BR L362N^7.35, at 5-HT2BR L362F^7.35 [2] and on 5-HT2BR L362Y^7.35 were 41%, 60% and 69%, respectively. The “Gq calcium flux agonist activity” value at 5-HT2BR wild-type was “lack of lisuride agonist activity”.

In general, Emax refers to the greatest response seen or fitted, relative to the assay's reference.
